T1: U6 small nuclear RNA (snRNA) biogenesis phosphodiesterase 1 (USB1), wild type, C-terminal HA tag (human) (UniProt Q9BQ65)
T1 sequence: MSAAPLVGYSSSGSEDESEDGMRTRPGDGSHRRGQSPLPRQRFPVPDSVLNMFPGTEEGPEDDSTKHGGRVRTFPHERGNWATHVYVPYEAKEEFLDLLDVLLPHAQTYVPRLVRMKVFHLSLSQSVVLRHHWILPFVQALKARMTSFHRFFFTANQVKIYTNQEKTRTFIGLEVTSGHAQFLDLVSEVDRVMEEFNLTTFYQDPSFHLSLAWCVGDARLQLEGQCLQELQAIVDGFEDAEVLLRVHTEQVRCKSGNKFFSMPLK

Chains of the proteins cited; added tags and fusions are not shown.
UniProt P62318: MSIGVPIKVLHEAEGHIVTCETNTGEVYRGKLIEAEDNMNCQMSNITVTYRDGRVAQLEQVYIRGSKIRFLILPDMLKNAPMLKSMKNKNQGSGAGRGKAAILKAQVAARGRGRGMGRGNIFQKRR
UniProt O75947: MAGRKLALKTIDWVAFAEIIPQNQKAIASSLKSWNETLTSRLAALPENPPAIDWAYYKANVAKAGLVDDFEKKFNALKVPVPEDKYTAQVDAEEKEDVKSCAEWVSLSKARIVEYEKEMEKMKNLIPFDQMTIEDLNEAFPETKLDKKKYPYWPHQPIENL
UniProt Q99459: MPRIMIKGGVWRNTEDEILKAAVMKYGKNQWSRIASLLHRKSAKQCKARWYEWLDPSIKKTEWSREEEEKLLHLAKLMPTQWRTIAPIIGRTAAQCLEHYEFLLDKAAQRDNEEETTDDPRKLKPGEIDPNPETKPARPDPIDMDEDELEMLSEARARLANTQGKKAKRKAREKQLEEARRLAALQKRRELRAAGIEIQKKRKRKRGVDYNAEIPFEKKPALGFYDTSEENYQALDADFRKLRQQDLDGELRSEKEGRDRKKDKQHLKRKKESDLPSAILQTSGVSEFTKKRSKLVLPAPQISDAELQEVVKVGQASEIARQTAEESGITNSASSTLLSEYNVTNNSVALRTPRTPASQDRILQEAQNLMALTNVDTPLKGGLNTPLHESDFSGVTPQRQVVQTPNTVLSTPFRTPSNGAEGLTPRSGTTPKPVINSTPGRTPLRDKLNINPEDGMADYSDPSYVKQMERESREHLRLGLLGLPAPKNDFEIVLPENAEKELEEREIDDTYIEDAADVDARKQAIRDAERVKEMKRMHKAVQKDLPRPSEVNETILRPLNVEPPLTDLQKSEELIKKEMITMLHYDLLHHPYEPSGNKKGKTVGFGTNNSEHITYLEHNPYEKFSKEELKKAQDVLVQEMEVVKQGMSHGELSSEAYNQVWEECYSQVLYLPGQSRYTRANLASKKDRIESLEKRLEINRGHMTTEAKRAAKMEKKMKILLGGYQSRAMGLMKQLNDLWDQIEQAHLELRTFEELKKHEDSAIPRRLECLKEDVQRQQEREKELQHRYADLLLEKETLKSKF
UniProt P35580: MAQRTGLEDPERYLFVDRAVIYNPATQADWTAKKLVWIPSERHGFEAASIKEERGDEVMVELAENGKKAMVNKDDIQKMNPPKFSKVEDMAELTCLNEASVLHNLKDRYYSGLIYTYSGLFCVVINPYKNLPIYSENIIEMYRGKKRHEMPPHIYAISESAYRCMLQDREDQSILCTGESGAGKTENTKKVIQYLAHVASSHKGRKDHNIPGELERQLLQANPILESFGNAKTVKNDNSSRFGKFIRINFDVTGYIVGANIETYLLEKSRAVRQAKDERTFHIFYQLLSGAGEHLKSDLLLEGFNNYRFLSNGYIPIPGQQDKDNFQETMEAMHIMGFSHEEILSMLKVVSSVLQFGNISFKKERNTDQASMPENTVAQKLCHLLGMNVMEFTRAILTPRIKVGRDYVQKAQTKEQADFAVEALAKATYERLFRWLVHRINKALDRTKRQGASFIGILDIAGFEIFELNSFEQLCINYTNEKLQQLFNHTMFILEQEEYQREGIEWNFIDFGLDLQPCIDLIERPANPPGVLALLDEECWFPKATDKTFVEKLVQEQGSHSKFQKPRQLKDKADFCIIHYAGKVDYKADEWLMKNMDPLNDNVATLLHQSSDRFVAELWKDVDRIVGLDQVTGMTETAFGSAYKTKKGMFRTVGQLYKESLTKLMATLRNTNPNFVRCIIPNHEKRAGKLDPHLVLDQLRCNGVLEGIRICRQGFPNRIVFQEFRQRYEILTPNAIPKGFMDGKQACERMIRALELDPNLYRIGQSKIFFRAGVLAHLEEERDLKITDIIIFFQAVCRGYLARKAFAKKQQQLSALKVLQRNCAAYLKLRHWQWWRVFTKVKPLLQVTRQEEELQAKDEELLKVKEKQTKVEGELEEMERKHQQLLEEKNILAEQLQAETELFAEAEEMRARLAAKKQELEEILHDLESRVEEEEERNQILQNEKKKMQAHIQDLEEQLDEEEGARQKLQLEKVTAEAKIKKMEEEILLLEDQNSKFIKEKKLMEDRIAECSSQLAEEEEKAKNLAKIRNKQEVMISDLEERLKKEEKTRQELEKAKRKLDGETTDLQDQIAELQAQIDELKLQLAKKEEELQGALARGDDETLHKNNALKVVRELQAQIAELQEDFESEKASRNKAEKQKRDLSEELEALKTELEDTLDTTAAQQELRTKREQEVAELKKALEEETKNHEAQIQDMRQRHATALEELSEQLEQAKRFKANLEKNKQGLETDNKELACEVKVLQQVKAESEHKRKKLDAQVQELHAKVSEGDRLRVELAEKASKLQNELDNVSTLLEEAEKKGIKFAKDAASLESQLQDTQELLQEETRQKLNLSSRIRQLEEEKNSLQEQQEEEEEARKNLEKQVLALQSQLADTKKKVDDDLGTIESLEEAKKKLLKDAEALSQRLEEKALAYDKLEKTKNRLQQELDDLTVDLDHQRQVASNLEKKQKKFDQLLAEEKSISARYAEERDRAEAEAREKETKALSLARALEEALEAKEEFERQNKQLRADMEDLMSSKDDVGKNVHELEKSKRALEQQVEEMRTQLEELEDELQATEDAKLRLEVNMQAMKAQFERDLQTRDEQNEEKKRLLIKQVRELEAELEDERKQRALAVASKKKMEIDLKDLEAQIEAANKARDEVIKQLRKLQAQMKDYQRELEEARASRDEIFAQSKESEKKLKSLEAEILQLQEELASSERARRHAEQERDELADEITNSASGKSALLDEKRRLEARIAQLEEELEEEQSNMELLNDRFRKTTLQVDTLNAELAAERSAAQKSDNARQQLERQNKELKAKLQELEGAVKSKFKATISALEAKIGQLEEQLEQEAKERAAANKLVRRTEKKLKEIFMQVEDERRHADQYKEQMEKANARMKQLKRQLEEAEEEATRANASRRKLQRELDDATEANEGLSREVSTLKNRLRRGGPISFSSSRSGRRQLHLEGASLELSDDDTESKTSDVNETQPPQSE
UniProt Q14974: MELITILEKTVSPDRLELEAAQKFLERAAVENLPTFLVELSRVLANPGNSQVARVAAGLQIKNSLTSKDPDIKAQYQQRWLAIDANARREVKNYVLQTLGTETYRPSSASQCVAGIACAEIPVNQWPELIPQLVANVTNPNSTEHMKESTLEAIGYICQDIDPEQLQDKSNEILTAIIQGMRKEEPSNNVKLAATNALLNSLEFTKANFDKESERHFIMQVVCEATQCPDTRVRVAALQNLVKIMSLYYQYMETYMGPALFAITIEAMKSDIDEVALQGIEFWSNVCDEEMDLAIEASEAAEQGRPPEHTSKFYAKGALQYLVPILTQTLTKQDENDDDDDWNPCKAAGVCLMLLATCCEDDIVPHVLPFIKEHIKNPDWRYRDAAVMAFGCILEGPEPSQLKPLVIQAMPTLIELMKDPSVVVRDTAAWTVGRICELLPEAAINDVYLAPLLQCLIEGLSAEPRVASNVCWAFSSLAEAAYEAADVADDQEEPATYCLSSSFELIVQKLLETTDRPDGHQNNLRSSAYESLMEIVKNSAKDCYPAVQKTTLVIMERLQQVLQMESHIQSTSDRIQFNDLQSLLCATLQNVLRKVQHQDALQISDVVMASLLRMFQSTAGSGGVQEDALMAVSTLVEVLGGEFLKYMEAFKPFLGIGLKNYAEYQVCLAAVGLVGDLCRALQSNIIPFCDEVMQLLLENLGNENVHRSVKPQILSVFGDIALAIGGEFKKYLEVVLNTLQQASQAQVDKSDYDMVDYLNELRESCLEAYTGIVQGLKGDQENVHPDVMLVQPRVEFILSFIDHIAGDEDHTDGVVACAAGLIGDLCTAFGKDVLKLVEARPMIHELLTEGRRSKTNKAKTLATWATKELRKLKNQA

B1: RBM27 (protein, UniProt Q9P2N5 1-1060)
chain: MLIEDVDALKSWLAKLLEPICDADPSALANYVVALVKKDKPEKELKAFCADQLDVFLQKETSGFVDKLFESLYTKNYLPLLEPVKPEPKPLVQEKEEIKEEVFQEPAEEERDGRKKKYPSPQKTRSESSERRTREKKREDGKWRDYDRYYERNELYREKYDWRRGRSKSRSKSRGLSRSRSRSRGRSKDRDPNRNVEHRERSKFKSERNDLESSYVPVSAPPPNSSEQYSSGAQSIPSTVTVIAPAHHSENTTESWSNYYNNHSSSNSFGRNLPPKRRCRDYDERGFCVLGDLCQFDHGNDPLVVDEVALPSMIPFPPPPPGLPPPPPPGMLMPPMPGPGPGPGPGPGPGPGPGPGPGHSMRLPVPQGHGQPPPSVVLPIPRPPITQSSLINSRDQPGTSAVPNLASVGTRLPPPLPQNLLYTVSERQPMYSREHGAAASERLQLGTPPPLLAARLVPPRNLMGSSIGYHTSVSSPTPLVPDTYEPDGYNPEAPSITSSGRSQYRQFFSRTQTQRPNLIGLTSGDMDVNPRAANIVIQTEPPVPVSINSNITRVVLEPDSRKRAMSGLEGPLTKKPWLGKQGNNNQNKPGFLRKNQYTNTKLEVKKIPQELNNITKLNEHFSKFGTIVNIQVAFKGDPEAALIQYLTNEEARKAISSTEAVLNNRFIRVLWHRENNEQPTLQSSAQLLLQQQQTLSHLSQQHHHLPQHLHQQQVLVAQSAPSTVHGGIQKMMSKPQTSGAYVLNKVPVKHRLGHAGGNQSDASHLLNQSGGAGEDCQIFSTPGHPKMIYSSSNLKTPSKLCSGSKSHDVQEVLKKKQEAMKLQQDMRKKRQEVLEKQIECQKMLISKLEKNKNMKPEERANIMKTLKELGEKISQLKDELKTSSAVSTPSKVKTKTEAQKELLDTELDLHKRLSSGEDTTELRKKLSQLQVEAARLGILPVGRGKTMSSQGRGRGRGRGGRGRGSLNHMVVDHRPKALTVGGFIEEEKEDLLQHFSTANQGPKFKDRRLQISWHKPKVPSISTETEEEEVKEEETETSDLFLPDDDDEDEDEYESRSWRR
B2: PLRG1 (protein, UniProt O43660 1-514)
chain: MVEEVQKHSVHTLVFRSLKRTHDMFVADNGKPVPLDEESHKRKMAIKLRNEYGPVLHMPTSKENLKEKGPQNATDSYVHKQYPANQGQEVEYFVAGTHPYPPGPGVALTADTKIQRMPSESAAQSLAVALPLQTKADANRTAPSGSEYRHPGASDRPQPTAMNSIVMETGNTKNSALMAKKAPTMPKPQWHPPWKLYRVISGHLGWVRCIAVEPGNQWFVTGSADRTIKIWDLASGKLKLSLTGHISTVRGVIVSTRSPYLFSCGEDKQVKCWDLEYNKVIRHYHGHLSAVYGLDLHPTIDVLVTCSRDSTARIWDVRTKASVHTLSGHTNAVATVRCQAAEPQIITGSHDTTIRLWDLVAGKTRVTLTNHKKSVRAVVLHPRHYTFASGSPDNIKQWKFPDGSFIQNLSGHNAIINTLTVNSDGVLVSGADNGTMHLWDWRTGYNFQRVHAAVQPGSLDSESGIFACAFDQSESRLLTAEADKTIKVYREDDTATEETHPVSWKPEIIKRKRF
B3: DHX8 (protein, UniProt Q14562 1-1220)
chain: MAVAVAMAGALIGSEPGPAEELAKLEYLSLVSKVCTELDNHLGINDKDLAEFVISLAEKNTTFDTFKASLVKNGAEFTDSLISNLLRLIQTMRPPAKPSTSKDPVVKPKTEKEKLKELFPVLCQPDNPSVRTMLDEDDVKVAVDVLKELEALMPSAAGQEKQRDAEHRDRTKKKKRSRSRDRNRDRDRDRERNRDRDHKRRHRSRSRSRSRTRERNKVKSRYRSRSRSQSPPKDRKDRDKYGERNLDRWRDKHVDRPPPEEPTIGDIYNGKVTSIMQFGCFVQLEGLRKRWEGLVHISELRREGRVANVADVVSKGQRVKVKVLSFTGTKTSLSMKDVDQETGEDLNPNRRRNLVGETNEETSMRNPDRPTHLSLVSAPEVEDDSLERKRLTRISDPEKWEIKQMIAANVLSKEEFPDFDEETGILPKVDDEEDEDLEIELVEEEPPFLRGHTKQSMDMSPIKIVKNPDGSLSQAAMMQSALAKERRELKQAQREAEMDSIPMGLNKHWVDPLPDAEGRQIAANMRGIGMMPNDIPEWKKHAFGGNKASYGKKTQMSILEQRESLPIYKLKEQLVQAVHDNQILIVIGETGSGKTTQITQYLAEAGYTSRGKIGCTQPRRVAAMSVAKRVSEEFGCCLGQEVGYTIRFEDCTSPETVIKYMTDGMLLRECLIDPDLTQYAIIMLDEAHERTIHTDVLFGLLKKTVQKRQDMKLIVTSATLDAVKFSQYFYEAPIFTIPGRTYPVEILYTKEPETDYLDASLITVMQIHLTEPPGDILVFLTGQEEIDTACEILYERMKSLGPDVPELIILPVYSALPSEMQTRIFDPAPPGSRKVVIATNIAETSLTIDGIYYVVDPGFVKQKVYNSKTGIDQLVVTPISQAQAKQRAGRAGRTGPGKCYRLYTERAYRDEMLTTNVPEIQRTNLASTVLSLKAMGINDLLSFDFMDAPPMETLITAMEQLYTLGALDDEGLLTRLGRRMAEFPLEPMLCKMLIMSVHLGCSEEMLTIVSMLSVQNVFYRPKDKQALADQKKAKFHQTEGDHLTLLAVYNSWKNNKFSNPWCYENFIQARSLRRAQDIRKQMLGIMDRHKLDVVSCGKSTVRVQKAICSGFFRNAAKKDPQEGYRTLIDQQVVYIHPSSALFNRQPEWVVYHELVLTTKEYMREVTTIDPRWLVEFAPAFFKVSDPTKLSKQKKQQRLEPLYNRYEEPNAWRISRAFRRR
B4: TMED3 (protein, UniProt Q9Y3Q3 24-217)
chain: PCGAELTFELPDNAKQCFHEEVEQGVKFSLDYQVITGGHYDVDCYVEDPQGNTIYRETKKQYDSFTYRAEVKGVYQFCFSNEFSTFSHKTVYFDFQVGDEPPILPDMGNRVTALTQMESACVTIHEALKTVIDSQTHYRLREAQDRARAEDLNSRVSYWSVGETIALFVVSFSQVLLLKSFFTEKRPISRAVHS
B5: ATP5PB (protein, UniProt P24539 43-256)
chain: PVPPLPEYGGKVRYGLIPEEFFQFLYPKTGVTGPYVLGTGLILYALSKEIYVISAETFTALSVLGVMVYGIKKYGPFVADFADKLNEQKLAQLEEAKQASIQHIQNAIDTEKSQQALVQKRHYLFDVQRNNIAMALEVTYRERLYRVYKEVKNRLDYHISVQNMMRRKEQEHMINWVEKHVVQSISTQQEKETIAKCIADLKLLAKKAQAQPVM
B6: RBM22 (protein, UniProt Q9NW64 1-420)
chain: MATSLGSNTYNRQNWEDADFPILCQTCLGENPYIRMTKEKYGKECKICARPFTVFRWCPGVRMRFKKTEVCQTCSKLKNVCQTCLLDLEYGLPIQVRDAGLSFKDDMPKSDVNKEYYTQNMEREISNSDGTRPVGMLGKATSTSDMLLKLARTTPYYKRNRPHICSFWVKGECKRGEECPYRHEKPTDPDDPLADQNIKDRYYGINDPVADKLLKRASTMPRLDPPEDKTITTLYVGGLGDTITETDLRNHFYQFGEIRTITVVQRQQCAFIQFATRQAAEVAAEKSFNKLIVNGRRLNVKWGRSQAARGKEKEKDGTTDSGIKLEPVPGLPGALPPPPAAEEEASANYFNLPPSGPPAVVNIALPPPPGIAPPPPPGFGPHMFHPMGPPPPFMRAPGPIHYPSQDPQRMGAHAGKHSSP

These are yes or no findings as the source states them, for the method shown. Binding seen in cells or lysates may run through a third protein. A yes stands for co-enrichment or nearness to the bait. Other partners may have been found. Sequences can lack the tags named with a protein.

In the assay the target is T1, U6 small nuclear RNA (snRNA) biogenesis phosphodiesterase 1 (USB1), wild type, C-terminal HA tag (human). In words: affinity purification with mass spectrometry; lysates (600 ug protein) of HEK293T cells expressing USB1-HA variants or empty vector, Pierce anti-HA magnetic beads overnight at 4 C, IP Lysis/Wash Buffer; eluates digested with trypsin, nLC-MS/MS (DIA-PASEF); n = 4.
With SNRPD3 (from UniProt P62318 1-126), the binding entry is listed as “binds”.

Consider ATP5PD (from UniProt O75947 1-161), for which the binding entry was “binds”.

For the molecule CDC5L (from UniProt Q99459 1-802), the binding entry was “binds”.

On to MYH10 (from UniProt P35580 1-1976), for which the binding result is “binds”.

In the case of KPNB1 (from UniProt Q14974 1-876), the binding entry is reported as “binds”.

Consider B1, for which the binding entry was “binds”.

In the case of B2, the binding entry is listed as “binds”.

For the molecule B3, the binding entry is recorded as “binds”.

As to B4, the binding entry is “binds”.

Consider B5, for which the binding entry was “binds”.

As for B6, the binding entry was “binds”.
